Laboratory results: publication PMC7063047

Sequences of proteins named here, by UniProt entry; tags and fusion partners are left off. A change or cut given only in a name is not applied to a line headed by its entry. A line that says so, or that is headed by a name, gives the form on record, which may keep a tag or linker.
endogenous USP9X (Q93008-3, form named): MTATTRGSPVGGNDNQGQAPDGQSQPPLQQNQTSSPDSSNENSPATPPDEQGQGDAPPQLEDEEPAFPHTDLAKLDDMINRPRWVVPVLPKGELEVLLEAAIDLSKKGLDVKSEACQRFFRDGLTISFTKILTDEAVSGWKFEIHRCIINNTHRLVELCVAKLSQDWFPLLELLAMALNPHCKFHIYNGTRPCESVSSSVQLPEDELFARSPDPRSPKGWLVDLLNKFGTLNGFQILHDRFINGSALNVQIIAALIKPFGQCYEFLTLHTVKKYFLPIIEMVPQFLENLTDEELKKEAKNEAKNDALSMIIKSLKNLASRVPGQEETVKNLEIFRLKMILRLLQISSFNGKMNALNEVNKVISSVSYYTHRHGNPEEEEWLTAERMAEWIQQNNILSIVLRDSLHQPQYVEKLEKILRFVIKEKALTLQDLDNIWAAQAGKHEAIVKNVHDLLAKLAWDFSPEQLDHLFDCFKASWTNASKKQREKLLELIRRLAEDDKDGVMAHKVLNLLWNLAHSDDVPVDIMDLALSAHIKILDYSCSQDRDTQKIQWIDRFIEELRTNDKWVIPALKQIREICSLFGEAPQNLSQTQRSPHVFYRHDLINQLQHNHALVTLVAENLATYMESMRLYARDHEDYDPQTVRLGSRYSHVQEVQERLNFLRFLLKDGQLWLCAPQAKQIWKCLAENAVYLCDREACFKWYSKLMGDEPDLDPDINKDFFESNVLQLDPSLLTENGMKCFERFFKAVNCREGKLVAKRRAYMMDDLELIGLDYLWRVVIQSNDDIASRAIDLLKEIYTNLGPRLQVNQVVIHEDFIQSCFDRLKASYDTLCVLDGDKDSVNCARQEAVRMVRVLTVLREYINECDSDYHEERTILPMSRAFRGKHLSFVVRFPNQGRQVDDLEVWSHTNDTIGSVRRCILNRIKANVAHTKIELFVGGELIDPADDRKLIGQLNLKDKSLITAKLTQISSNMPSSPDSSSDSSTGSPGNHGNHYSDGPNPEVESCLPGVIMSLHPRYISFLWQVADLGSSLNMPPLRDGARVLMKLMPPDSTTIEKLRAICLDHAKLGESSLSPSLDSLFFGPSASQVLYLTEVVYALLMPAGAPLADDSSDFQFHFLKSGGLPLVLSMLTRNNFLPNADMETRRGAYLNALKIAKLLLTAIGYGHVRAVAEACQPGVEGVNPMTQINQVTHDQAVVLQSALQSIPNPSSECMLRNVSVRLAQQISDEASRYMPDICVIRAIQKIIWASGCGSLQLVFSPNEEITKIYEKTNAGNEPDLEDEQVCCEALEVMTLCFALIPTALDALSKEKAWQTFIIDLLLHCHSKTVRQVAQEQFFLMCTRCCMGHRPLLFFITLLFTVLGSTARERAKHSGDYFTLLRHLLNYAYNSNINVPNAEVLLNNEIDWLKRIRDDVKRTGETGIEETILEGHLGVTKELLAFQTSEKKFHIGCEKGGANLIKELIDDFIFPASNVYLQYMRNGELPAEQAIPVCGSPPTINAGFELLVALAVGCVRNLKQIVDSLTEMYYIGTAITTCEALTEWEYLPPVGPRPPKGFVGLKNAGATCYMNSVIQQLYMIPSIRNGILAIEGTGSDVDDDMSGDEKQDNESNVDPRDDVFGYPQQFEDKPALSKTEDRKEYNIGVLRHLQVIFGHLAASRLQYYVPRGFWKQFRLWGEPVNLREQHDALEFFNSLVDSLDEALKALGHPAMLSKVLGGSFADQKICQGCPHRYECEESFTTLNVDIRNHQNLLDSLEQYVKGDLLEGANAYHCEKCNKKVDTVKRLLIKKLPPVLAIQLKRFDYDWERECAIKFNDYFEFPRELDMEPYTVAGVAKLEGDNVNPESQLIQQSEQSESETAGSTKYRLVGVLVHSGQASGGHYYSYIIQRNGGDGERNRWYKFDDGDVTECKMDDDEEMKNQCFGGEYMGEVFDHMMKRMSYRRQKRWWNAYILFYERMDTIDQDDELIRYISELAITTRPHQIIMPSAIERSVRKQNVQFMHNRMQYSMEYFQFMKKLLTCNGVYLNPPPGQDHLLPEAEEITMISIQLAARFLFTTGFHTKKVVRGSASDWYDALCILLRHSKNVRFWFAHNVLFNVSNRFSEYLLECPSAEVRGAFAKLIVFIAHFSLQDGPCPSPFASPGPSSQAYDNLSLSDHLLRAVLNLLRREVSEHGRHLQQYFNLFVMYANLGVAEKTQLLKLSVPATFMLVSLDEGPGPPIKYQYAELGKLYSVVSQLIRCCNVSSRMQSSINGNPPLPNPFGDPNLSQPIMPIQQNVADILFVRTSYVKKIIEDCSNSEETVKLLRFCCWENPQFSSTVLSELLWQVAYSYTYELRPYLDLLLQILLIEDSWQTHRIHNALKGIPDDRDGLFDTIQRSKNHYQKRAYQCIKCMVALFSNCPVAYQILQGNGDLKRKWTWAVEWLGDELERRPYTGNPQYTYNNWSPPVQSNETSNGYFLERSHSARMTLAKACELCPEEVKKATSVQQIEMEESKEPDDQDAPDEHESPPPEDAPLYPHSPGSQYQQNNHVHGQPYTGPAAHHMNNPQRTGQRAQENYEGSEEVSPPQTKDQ

Target: T1, FLAG-tagged CDC14B (human) (UniProt O60729)
T1 sequence: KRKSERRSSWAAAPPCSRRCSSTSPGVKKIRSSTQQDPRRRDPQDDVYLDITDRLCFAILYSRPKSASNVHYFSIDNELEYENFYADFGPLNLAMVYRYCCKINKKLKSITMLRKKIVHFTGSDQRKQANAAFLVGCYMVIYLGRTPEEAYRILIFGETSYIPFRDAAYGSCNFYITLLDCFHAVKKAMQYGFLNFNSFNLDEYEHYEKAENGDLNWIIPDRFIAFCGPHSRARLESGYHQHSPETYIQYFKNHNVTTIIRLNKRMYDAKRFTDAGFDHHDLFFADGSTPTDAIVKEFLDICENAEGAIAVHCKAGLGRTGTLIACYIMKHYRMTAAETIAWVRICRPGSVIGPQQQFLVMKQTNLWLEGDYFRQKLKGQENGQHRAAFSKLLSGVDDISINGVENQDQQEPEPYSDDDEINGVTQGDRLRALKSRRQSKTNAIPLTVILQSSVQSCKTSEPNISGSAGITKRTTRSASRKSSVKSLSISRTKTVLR
Experiment: affinity purification with mass spectrometry; CDC14B interactomes from unsynchronized and G2/M-enriched cells compared; affinity purification from lysate (Tris/HCl pH 7.5 50 mM, NaCl 150 mM, NP40 0.1%), LC-MS/MS

binding: binds
Substance: endogenous USP9X (from UniProt Q93008-3 1-2570) (enzyme)

Results are given in words; binding and its absence hold for the method and conditions named. Binding seen in cells or lysates may run through a third protein. These calls come from enrichment with a bait or labelling near it, and not all partners need be listed. Tags and fused reporters may be left off the sequences shown.
